# Results taken from the supplement of paper PMC10849652.
# Sequences of proteins named here, by UniProt entry; tags and fusion partners are left off. A change or cut given only in a name is not applied to a line headed by its entry.
# UniProt O95544: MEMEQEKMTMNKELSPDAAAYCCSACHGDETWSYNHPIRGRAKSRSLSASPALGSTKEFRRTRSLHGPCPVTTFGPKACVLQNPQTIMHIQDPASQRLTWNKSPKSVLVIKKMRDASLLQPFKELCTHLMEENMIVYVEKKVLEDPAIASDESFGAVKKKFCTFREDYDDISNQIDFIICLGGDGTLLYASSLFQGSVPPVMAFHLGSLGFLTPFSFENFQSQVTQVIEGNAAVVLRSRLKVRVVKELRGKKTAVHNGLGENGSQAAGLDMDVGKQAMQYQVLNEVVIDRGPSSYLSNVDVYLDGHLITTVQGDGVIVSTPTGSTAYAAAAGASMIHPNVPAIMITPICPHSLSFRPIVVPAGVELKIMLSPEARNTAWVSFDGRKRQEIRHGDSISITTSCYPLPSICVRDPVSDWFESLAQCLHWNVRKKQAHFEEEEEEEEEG
# UniProt P10242: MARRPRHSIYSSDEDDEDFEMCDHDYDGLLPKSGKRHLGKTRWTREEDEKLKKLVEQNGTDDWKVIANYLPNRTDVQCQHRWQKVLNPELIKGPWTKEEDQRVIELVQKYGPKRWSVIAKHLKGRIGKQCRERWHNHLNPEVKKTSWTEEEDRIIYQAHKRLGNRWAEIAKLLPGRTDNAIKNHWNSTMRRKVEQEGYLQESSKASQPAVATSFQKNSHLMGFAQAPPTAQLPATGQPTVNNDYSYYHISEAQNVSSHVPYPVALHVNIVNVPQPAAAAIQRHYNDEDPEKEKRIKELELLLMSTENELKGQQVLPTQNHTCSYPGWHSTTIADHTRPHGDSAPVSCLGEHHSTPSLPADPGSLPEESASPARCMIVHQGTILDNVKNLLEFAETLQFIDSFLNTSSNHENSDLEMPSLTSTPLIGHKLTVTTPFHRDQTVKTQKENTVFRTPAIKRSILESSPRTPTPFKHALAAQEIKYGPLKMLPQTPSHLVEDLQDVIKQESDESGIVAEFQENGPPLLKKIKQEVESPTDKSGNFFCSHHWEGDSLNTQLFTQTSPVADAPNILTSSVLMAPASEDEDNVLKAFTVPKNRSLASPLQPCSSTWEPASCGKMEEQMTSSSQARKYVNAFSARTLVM
# UniProt P35579, whole entry, looked up: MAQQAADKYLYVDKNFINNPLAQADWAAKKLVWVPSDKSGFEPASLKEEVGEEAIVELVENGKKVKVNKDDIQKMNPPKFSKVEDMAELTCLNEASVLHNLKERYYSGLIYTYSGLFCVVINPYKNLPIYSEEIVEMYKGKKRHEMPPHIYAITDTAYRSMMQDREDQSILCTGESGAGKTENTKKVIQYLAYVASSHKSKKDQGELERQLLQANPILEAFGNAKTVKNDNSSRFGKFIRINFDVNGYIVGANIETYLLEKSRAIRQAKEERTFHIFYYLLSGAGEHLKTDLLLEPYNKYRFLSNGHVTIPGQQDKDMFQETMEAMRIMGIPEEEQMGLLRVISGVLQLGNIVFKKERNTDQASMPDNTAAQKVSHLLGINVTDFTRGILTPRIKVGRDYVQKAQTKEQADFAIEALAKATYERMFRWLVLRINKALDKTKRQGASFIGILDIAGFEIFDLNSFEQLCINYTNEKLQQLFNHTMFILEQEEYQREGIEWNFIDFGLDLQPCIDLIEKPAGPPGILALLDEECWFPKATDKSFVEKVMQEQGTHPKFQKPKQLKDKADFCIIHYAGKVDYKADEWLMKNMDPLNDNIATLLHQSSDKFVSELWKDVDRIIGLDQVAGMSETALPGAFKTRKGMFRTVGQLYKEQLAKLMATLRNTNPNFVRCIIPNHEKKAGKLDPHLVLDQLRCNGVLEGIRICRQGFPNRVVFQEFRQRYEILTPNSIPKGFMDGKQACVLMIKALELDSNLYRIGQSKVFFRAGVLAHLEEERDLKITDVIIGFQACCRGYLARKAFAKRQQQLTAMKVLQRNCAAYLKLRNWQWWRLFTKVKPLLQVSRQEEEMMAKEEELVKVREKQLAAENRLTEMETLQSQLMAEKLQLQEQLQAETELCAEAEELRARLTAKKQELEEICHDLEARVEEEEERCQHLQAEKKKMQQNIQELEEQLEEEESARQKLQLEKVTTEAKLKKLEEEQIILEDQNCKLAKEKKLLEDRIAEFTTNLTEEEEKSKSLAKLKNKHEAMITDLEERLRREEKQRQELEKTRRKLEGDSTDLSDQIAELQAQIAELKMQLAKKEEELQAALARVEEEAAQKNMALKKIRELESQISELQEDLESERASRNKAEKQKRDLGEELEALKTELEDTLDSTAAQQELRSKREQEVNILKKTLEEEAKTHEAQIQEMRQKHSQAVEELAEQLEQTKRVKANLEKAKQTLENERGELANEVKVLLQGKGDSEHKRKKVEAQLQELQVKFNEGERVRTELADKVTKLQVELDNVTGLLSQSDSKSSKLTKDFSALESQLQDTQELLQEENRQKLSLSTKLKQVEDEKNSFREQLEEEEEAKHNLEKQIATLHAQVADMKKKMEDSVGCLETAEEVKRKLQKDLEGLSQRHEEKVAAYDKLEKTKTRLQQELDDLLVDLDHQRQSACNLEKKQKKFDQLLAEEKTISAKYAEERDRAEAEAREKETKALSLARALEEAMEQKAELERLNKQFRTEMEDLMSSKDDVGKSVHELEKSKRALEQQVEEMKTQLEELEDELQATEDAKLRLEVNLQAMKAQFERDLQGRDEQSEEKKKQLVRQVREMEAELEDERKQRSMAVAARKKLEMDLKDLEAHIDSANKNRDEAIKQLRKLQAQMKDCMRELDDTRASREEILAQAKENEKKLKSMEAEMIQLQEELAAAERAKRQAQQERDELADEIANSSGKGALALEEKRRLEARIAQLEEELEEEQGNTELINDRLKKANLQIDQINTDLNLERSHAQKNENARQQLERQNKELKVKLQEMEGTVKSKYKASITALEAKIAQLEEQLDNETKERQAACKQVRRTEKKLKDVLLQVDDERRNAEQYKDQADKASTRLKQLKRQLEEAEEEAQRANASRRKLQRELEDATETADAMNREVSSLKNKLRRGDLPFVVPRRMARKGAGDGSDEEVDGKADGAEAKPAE
# UniProt Q9H0A0: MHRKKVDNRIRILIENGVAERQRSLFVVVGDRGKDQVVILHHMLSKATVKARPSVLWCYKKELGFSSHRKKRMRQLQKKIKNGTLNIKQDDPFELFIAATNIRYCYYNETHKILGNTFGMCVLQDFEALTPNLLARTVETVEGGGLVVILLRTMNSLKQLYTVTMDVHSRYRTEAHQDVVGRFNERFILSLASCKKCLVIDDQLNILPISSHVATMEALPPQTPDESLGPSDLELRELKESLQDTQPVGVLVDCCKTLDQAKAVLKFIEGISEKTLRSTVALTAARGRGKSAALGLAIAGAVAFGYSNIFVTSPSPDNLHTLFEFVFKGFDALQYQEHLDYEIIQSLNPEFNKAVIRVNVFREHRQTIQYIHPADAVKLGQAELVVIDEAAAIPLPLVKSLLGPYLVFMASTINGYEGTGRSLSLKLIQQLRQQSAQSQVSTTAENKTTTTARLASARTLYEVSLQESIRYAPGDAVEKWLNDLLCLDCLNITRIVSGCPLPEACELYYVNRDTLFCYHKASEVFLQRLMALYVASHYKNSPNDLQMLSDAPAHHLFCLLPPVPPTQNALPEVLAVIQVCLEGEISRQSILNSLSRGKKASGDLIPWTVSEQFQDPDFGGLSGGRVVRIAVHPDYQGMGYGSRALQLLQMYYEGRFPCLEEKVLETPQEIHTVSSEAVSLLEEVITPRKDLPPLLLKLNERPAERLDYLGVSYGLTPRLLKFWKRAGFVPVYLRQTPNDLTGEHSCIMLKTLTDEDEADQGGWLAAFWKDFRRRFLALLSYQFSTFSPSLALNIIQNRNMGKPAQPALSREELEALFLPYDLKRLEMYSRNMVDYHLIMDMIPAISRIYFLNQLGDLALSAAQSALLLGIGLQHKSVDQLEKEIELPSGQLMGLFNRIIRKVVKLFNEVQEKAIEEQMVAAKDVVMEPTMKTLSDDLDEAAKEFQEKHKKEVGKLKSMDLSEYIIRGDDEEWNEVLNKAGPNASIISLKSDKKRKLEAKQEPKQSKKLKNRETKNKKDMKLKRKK
# UniProt P35580, whole entry, looked up: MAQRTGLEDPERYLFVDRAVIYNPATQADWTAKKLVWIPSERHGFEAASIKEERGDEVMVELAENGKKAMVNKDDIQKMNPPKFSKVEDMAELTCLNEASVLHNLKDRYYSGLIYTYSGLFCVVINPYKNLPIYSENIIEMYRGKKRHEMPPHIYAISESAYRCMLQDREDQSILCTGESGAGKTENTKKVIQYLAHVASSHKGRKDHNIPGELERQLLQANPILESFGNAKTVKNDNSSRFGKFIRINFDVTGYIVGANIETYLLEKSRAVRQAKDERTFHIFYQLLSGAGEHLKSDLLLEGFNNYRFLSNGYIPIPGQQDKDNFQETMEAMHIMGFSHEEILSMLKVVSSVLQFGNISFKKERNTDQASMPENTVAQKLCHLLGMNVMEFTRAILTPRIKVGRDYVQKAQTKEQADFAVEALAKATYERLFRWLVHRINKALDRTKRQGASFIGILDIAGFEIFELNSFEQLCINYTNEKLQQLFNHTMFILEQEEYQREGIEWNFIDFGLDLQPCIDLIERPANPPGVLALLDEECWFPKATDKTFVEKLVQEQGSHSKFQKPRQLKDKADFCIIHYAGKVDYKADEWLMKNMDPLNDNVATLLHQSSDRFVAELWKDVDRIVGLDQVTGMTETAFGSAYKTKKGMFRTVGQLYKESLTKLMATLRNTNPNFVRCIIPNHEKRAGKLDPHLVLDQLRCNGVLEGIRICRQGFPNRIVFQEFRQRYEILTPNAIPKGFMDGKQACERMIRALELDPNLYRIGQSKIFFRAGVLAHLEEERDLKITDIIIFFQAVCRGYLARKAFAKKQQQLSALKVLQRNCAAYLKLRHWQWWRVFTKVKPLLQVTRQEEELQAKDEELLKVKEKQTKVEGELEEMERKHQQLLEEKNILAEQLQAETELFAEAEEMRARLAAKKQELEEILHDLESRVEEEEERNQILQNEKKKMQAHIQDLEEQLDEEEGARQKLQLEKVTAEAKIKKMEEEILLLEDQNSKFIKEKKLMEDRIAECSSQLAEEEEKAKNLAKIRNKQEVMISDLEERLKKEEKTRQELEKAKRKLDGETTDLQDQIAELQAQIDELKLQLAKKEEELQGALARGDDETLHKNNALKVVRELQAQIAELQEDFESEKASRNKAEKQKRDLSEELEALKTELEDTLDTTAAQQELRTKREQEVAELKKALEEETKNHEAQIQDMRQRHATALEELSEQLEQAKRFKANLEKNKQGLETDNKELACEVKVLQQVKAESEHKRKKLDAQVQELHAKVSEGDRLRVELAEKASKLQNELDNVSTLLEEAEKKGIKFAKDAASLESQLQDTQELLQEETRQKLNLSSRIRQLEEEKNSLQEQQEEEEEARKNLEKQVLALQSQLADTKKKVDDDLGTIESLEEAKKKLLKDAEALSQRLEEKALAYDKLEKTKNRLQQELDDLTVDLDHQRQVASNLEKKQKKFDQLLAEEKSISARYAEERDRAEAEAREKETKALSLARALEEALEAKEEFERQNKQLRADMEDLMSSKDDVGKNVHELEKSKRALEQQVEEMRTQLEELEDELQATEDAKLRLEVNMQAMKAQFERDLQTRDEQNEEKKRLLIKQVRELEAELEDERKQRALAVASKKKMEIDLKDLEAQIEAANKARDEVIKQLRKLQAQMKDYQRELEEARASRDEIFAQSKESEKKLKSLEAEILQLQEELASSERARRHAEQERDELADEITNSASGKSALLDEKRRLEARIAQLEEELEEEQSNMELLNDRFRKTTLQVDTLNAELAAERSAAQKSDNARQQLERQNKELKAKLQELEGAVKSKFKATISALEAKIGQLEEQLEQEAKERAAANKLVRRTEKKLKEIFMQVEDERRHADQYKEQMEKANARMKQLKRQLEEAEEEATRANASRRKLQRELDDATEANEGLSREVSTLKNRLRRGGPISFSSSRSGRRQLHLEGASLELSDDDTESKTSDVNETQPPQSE
# UniProt Q02083: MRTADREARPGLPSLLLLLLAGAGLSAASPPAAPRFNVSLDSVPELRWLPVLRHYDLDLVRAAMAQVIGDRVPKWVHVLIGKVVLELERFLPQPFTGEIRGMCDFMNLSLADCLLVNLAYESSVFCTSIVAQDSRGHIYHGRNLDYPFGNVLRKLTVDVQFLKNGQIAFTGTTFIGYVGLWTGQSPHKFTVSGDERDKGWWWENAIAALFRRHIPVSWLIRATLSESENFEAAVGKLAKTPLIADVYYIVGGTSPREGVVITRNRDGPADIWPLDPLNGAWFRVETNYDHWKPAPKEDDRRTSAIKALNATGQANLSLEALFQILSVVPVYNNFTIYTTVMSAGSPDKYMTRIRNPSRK
# UniProt Q69YL0: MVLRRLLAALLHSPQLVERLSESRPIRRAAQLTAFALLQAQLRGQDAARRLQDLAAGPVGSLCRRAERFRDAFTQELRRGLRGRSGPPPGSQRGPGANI
# The other results are listed elsewhere or left out.
# How the values were obtained:
# Assay in all cases: log2 fold change, soluble protein after heating vs DMSO (PISA); higher = thermal stabilisation; K562 lysate, 10 uM; active = over 0.2 and 3.5 SD of the protein, either way, in both replicates (recomputed)
# [1] = compound: C#Cc1cccc(Nc2ncnc3cc(OCCOC)c(OCCOC)cc23)c1 [erlotinib]
# Summary of the method: (§1)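 Dounce homogenisation of K562 pellets in PBS pH 7.4 with 1 mM MgCl2 produced a crude extract, used at 1 mg/mL protein. Exposure to 10 μM compound lasted 30 min, and aliquots were then heated for 3 min across 48°C-58°C, pooled and brought to 0.5% NP-40 at 4°C. The supernatant after 21,000xg for 90 min was quantified by TMTpro 16plex LC-MS/MS with channel sums equalised. Duplicate values are given as log-two fold change in thermal stability relative to solvent controls.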
# [2] = compound: C/C(=N\NC(=O)C1=CC(=CC=C1)S(=O)(=O)N2CCOCC2)/C3=C(C=CC(=C3)Cl)O
# Summary of the method: as §1
# [3] = compound: C1=CC(=CC=C1C2=NC3=C(N2)C=C(C=C3)C(=O)N)OC4=CC=C(C=C4)Cl
# Summary of the method: as §1
# [4] = compound: C1=CC2=C(C=CC(=C2)/C=C\3/C(=O)NC(=NCC4=CC=CS4)S3)N=C1
# Summary of the method: as §1
# [5] = compound: C1=CC2=NC=CN=C2C=C1/C=C/3\C(=O)NC(=O)S3
# Summary of the method: as §1
# [6] = compound: C1=CC=C(C=C1)C2=NC(=C(N2)C3=CC=NC=C3)C4=CC(=C(C=C4)Cl)O
# Summary of the method: as §1
# [7] = compound: C1=CC=C2C(=C1)C3=NNC4=CC=CC(=C43)C2=O
# Summary of the method: as §1
# [8] = compound: C1CCN(C1)C(=O)NC2=CC=CC(=C2)NC3=NC=C(C(=N3)NCCC4=CN=CN4)Br
# Summary of the method: as §1
# [9] = compound: C1CN(CCC1(CC2=CC=C(C=C2)Cl)N)C3=NC=NC4=C3C=CN4
# Summary of the method: as §1
# [10] = compound: C1COCCN1CCN2C3=CC=CC=C3N=C2NC(=O)C4=CC(=CC=C4)[N+](=O)[O-] [IRAK-1-4 Inhibitor I]
# Summary of the method: as §1
Target,log2 fold change [1],log2 fold change [2],log2 fold change [3],log2 fold change [4],log2 fold change [5],log2 fold change [6],log2 fold change [7],log2 fold change [8],log2 fold change [9],log2 fold change [10]
NADK (UniProt O95544),inactive: 0.002,inactive: -0.027,inactive: 0,inactive: -0.023,inactive: 0.084,inactive: 0.011,inactive: -0.047,inactive: -0.01,inactive: -0.041,inactive: -0.019
MYD88 isoform 6 (UniProt Q99836),inactive: -0.066,inactive: 0.007,inactive: -0.011,inactive: -0.019,inactive: -0.019,inactive: -0.015,inactive: -0.025,inactive: 0.032,inactive: -0.067,inactive: 0.004
NCOA2 (UniProt Q15596),inactive: 0.015,inactive: 0.025,inactive: 0.061,inactive: -0.017,inactive: -0.082,inactive: -0.036,inactive: 0.026,inactive: -0.031,inactive: 0.028,inactive: -0.019
MYB isoform 4 (UniProt P10242),inactive: 0.066,inactive: 0.007,inactive: -0.053,inactive: 0.115,inactive: -0.184,inactive: 0.074,inactive: 0.236,inactive: 0.07,inactive: -0.127,inactive: 0.011
MYH9 (UniProt P35579),inactive: -0.015,inactive: -0.018,inactive: 0.026,inactive: -0.006,inactive: -0.015,inactive: -0.002,inactive: -0.001,inactive: 0.003,inactive: 0.003,inactive: -0.001
NARS2 (UniProt Q96I59),inactive: -0.027,inactive: -0.034,inactive: -0.045,inactive: 0.031,inactive: 0.022,inactive: -0.021,inactive: -0.04,inactive: 0.027,inactive: -0.027,inactive: -0.088
NBEA (UniProt Q8NFP9),inactive: -0.095,inactive: -0.049,inactive: -0.071,inactive: 0.04,inactive: 0.046,inactive: -0.007,inactive: -0.032,inactive: -0.038,inactive: 0.052,inactive: -0.054
NAT10 (UniProt Q9H0A0),inactive: 0.016,inactive: -0.038,inactive: -0.025,inactive: 0.011,inactive: -0.041,inactive: 0.025,inactive: 0,inactive: -0.014,inactive: 0.025,inactive: -0.016
MYH10 isoform 3 (UniProt P35580),inactive: -0.005,inactive: -0.022,inactive: 0.022,inactive: -0.016,inactive: -0.006,inactive: 0.013,inactive: -0.015,inactive: 0.004,inactive: 0.013,inactive: 0.001
NAGA (UniProt P17050),inactive: 0.009,inactive: -0.233,inactive: -0.032,inactive: 0.048,inactive: 0.058,inactive: -0.006,inactive: -0.055,inactive: 0.012,inactive: 0.023,inactive: 0.016
N4BP1 (UniProt O75113),inactive: -0.026,inactive: -0.031,inactive: -0.002,inactive: 0.003,inactive: -0.005,inactive: -0.023,inactive: 0,inactive: -0.017,inactive: -0.038,inactive: 0.014
MYADM (UniProt Q96S97),inactive: -0.031,inactive: 0.049,inactive: -0.027,inactive: 0.064,inactive: -0.085,inactive: -0.019,inactive: -0.025,inactive: 0.024,inactive: -0.058,inactive: 0.016
NBEAL2 (UniProt Q6ZNJ1),inactive: 0.032,inactive: 0.011,inactive: -0.031,inactive: 0.038,inactive: 0.017,inactive: -0.004,inactive: -0.032,inactive: -0.012,inactive: 0.024,inactive: -0.01
NAAA (UniProt Q02083),inactive: 0.036,inactive: 0,inactive: 0.032,inactive: 0.012,inactive: 0.04,inactive: -0.021,inactive: 0.086,inactive: -0.146,inactive: -0.063,inactive: -0.014
NARF (UniProt Q9UHQ1),inactive: 0.005,inactive: 0.006,inactive: 0.042,inactive: 0.007,inactive: -0.005,inactive: 0.004,inactive: 0.004,inactive: -0.009,inactive: -0.021,inactive: -0.009
MYOM1 (UniProt P52179),inactive: -0.015,inactive: 0.033,inactive: -0.062,inactive: -0.228,inactive: -0.076,inactive: -0.009,inactive: 0.098,inactive: -0.023,inactive: 0.142,active: 0.503
MYL3 (UniProt P08590),inactive: 0.019,inactive: 0.015,inactive: 0.05,inactive: 0.045,inactive: -0.042,inactive: -0.033,inactive: -0.006,inactive: 0.021,inactive: 0.017,inactive: 0.051
NAA40 (UniProt Q86UY6),inactive: 0.002,inactive: 0.03,inactive: -0.012,inactive: 0.065,inactive: -0.123,inactive: 0.055,inactive: 0.033,inactive: 0.048,inactive: -0.024,inactive: -0.004
NAMPT (UniProt P43490),inactive: -0.035,inactive: 0.08,inactive: -0.027,inactive: -0.001,inactive: -0.004,inactive: 0.097,inactive: 0.097,inactive: 0.043,inactive: -0.036,inactive: -0.03
NCOA7 (UniProt Q8NI08),inactive: 0.036,inactive: 0.014,inactive: 0.029,inactive: -0.021,inactive: -0.025,inactive: 0.02,inactive: -0.042,inactive: -0.031,inactive: 0.031,inactive: -0.007
NCS1 (UniProt P62166),inactive: -0.003,inactive: 0.008,inactive: 0.012,inactive: -0.04,inactive: 0.023,inactive: 0.025,inactive: -0.008,inactive: 0.02,inactive: -0.005,inactive: 0.074
NCKAP1 isoform 2 (UniProt Q9Y2A7),inactive: 0.012,inactive: 0.015,inactive: 0.004,inactive: 0.017,inactive: 0.013,inactive: -0.001,inactive: -0.006,inactive: -0.003,inactive: 0.017,inactive: 0.002
NCBP2AS2 (UniProt Q69YL0),inactive: 0.067,inactive: -0.06,inactive: -0.086,inactive: 0.014,inactive: 0.014,inactive: -0.056,inactive: -0.014,inactive: -0.281,inactive: 0.041,inactive: 0.049
NAV1 (UniProt Q8NEY1),inactive: -0.015,inactive: 0.151,inactive: 0.006,inactive: -0.032,inactive: -0.003,inactive: -0.044,inactive: -0.045,inactive: -0.066,inactive: 0.049,inactive: 0.052
NCALD (UniProt P61601),inactive: -0.066,inactive: 0.005,inactive: -0.032,inactive: -0.028,inactive: -0.002,inactive: 0.029,inactive: 0.031,inactive: 0.01,inactive: 0.07,inactive: 0.015
NCOR1 (UniProt O75376),inactive: 0.011,inactive: -0.05,inactive: 0.081,inactive: 0.004,inactive: -0.014,inactive: -0.041,inactive: -0.001,inactive: 0.009,inactive: 0.019,inactive: 0.022
NCR3LG1 (UniProt Q68D85),inactive: -0.013,inactive: -0.042,inactive: -0.058,inactive: 0.071,inactive: 0.003,inactive: 0.009,inactive: 0.002,inactive: 0.005,inactive: 0.029,inactive: -0.025
MYO9B (UniProt Q13459),inactive: 0.028,inactive: -0.072,inactive: -0.019,inactive: 0.027,inactive: -0.052,inactive: -0.019,inactive: -0.026,inactive: -0.019,inactive: -0.036,inactive: 0.002
NAA30 (UniProt Q147X3),inactive: 0.015,inactive: -0.027,inactive: 0.061,inactive: 0.026,inactive: -0.007,inactive: -0.046,inactive: -0.038,inactive: -0.088,inactive: -0.031,inactive: 0.085
N4BP2 (UniProt Q86UW6),inactive: 0.04,inactive: -0.029,inactive: -0.09,inactive: 0.069,inactive: -0.015,inactive: 0.001,inactive: 0.106,inactive: -0.021,inactive: -0.068,inactive: -0.022

# No new results follow: an excerpt of the list.
Target,log2 fold change [1],log2 fold change [2],log2 fold change [3],log2 fold change [4],log2 fold change [5],log2 fold change [6],log2 fold change [7],log2 fold change [8],log2 fold change [9],log2 fold change [10]
NAAA (UniProt Q02083),inactive: 0.036,inactive: 0,inactive: 0.032,inactive: 0.012,inactive: 0.04,inactive: -0.021,inactive: 0.086,inactive: -0.146,inactive: -0.063,inactive: -0.014
NARF (UniProt Q9UHQ1),inactive: 0.005,inactive: 0.006,inactive: 0.042,inactive: 0.007,inactive: -0.005,inactive: 0.004,inactive: 0.004,inactive: -0.009,inactive: -0.021,inactive: -0.009
